No constants are given. Whether binding was seen depends on the method and setting. Binding seen in cells or lysates may run through a third protein. Some results given as binding are weak or reduced against the parent protein; the word gives no strength.

Chains of the proteins cited; added tags and fusions are not shown. Residues count along the entry.
UniProt O14786, residues 22-923: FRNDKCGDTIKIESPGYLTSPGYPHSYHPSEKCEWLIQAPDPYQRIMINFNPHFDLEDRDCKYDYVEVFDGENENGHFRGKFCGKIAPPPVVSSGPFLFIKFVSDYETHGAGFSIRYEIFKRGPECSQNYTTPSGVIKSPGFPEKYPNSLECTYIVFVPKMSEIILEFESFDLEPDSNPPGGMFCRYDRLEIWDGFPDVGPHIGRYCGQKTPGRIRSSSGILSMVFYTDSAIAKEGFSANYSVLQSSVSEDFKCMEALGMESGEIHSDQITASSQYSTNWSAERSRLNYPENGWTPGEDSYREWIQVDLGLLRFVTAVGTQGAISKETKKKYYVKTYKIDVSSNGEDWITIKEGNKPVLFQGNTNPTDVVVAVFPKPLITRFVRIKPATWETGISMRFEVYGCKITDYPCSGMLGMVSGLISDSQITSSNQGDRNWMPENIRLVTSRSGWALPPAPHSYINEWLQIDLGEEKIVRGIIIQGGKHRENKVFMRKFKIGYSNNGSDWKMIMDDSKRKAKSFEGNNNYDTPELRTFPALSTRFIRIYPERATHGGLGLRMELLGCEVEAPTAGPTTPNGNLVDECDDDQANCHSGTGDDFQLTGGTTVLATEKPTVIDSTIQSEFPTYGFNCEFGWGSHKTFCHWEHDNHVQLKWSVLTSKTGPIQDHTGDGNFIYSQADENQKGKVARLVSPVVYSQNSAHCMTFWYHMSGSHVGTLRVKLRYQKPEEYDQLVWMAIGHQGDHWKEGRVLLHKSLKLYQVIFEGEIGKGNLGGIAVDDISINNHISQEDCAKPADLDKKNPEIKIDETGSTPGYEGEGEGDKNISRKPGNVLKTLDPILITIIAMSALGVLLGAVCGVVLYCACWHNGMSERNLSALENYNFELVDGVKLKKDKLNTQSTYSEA

Experiment [1] addresses T1, GTPase-activating protein and VPS9 domain-containing protein 1 (GAPVD1) (human (endogenous in MDA-MB-231 and SUM159)) (UniProt Q14C86).
T1 sequence: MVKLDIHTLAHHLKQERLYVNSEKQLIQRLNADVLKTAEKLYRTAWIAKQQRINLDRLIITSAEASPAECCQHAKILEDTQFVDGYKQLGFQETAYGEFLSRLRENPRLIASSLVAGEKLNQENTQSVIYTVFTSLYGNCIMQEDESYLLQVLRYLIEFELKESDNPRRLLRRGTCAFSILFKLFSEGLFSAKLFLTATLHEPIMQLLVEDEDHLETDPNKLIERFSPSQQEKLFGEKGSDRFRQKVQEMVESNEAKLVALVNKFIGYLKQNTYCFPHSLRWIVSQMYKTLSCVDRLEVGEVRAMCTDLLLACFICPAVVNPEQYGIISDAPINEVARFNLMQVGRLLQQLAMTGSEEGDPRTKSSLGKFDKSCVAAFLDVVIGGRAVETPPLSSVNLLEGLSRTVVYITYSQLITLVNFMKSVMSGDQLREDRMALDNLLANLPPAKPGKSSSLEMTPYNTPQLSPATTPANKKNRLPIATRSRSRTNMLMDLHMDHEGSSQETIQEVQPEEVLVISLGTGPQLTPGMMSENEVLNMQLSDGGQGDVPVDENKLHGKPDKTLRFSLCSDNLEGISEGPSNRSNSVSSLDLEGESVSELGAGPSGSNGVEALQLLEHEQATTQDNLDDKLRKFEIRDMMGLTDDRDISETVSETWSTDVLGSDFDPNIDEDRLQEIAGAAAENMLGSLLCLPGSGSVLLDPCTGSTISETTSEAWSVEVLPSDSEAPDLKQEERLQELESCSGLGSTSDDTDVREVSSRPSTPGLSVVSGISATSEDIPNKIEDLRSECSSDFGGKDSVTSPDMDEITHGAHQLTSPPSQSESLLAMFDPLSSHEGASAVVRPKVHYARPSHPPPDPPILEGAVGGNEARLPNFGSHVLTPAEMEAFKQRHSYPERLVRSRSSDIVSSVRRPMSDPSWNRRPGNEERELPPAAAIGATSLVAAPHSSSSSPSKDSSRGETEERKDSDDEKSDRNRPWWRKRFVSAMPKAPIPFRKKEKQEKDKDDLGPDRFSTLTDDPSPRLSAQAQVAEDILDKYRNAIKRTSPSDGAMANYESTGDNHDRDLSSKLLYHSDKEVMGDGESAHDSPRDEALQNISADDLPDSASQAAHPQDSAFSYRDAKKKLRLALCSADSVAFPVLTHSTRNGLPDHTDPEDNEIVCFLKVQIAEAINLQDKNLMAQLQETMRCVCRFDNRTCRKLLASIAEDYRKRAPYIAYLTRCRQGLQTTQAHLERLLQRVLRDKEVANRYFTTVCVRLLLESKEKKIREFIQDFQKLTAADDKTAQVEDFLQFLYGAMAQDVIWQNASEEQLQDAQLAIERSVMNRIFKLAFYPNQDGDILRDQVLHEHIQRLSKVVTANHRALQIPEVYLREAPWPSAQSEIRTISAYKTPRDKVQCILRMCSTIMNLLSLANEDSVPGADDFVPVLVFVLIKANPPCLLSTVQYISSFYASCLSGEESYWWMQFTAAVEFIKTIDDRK
In words: co-IP; endogenous proteins in TNBC whole-cell extracts (RIPA with phosphatase and protease inhibitors); primary antibody or normal rabbit IgG overnight at 4 °C, protein A/G agarose beads, Western blot. A general note: Immunoblotting shows a protein as a band on a membrane.

For experiment [2], the target named is neuropilin-1 (NRP-1) (human (endogenous in MDA-MB-231 and SUM159)) (UniProt O14786). The experiment is described as above.

As for “neuropilin-1 (NRP-1) (from UniProt O14786 22-923) (receptor)”, the binding result in experiment [1] is listed as “binds”.

B1: GTPase-activating protein and VPS9 domain-containing protein 1 (GAPVD1) (protein, UniProt Q14C86 1-1478)
chain: MVKLDIHTLAHHLKQERLYVNSEKQLIQRLNADVLKTAEKLYRTAWIAKQQRINLDRLIITSAEASPAECCQHAKILEDTQFVDGYKQLGFQETAYGEFLSRLRENPRLIASSLVAGEKLNQENTQSVIYTVFTSLYGNCIMQEDESYLLQVLRYLIEFELKESDNPRRLLRRGTCAFSILFKLFSEGLFSAKLFLTATLHEPIMQLLVEDEDHLETDPNKLIERFSPSQQEKLFGEKGSDRFRQKVQEMVESNEAKLVALVNKFIGYLKQNTYCFPHSLRWIVSQMYKTLSCVDRLEVGEVRAMCTDLLLACFICPAVVNPEQYGIISDAPINEVARFNLMQVGRLLQQLAMTGSEEGDPRTKSSLGKFDKSCVAAFLDVVIGGRAVETPPLSSVNLLEGLSRTVVYITYSQLITLVNFMKSVMSGDQLREDRMALDNLLANLPPAKPGKSSSLEMTPYNTPQLSPATTPANKKNRLPIATRSRSRTNMLMDLHMDHEGSSQETIQEVQPEEVLVISLGTGPQLTPGMMSENEVLNMQLSDGGQGDVPVDENKLHGKPDKTLRFSLCSDNLEGISEGPSNRSNSVSSLDLEGESVSELGAGPSGSNGVEALQLLEHEQATTQDNLDDKLRKFEIRDMMGLTDDRDISETVSETWSTDVLGSDFDPNIDEDRLQEIAGAAAENMLGSLLCLPGSGSVLLDPCTGSTISETTSEAWSVEVLPSDSEAPDLKQEERLQELESCSGLGSTSDDTDVREVSSRPSTPGLSVVSGISATSEDIPNKIEDLRSECSSDFGGKDSVTSPDMDEITHGAHQLTSPPSQSESLLAMFDPLSSHEGASAVVRPKVHYARPSHPPPDPPILEGAVGGNEARLPNFGSHVLTPAEMEAFKQRHSYPERLVRSRSSDIVSSVRRPMSDPSWNRRPGNEERELPPAAAIGATSLVAAPHSSSSSPSKDSSRGETEERKDSDDEKSDRNRPWWRKRFVSAMPKAPIPFRKKEKQEKDKDDLGPDRFSTLTDDPSPRLSAQAQVAEDILDKYRNAIKRTSPSDGAMANYESTGDNHDRDLSSKLLYHSDKEVMGDGESAHDSPRDEALQNISADDLPDSASQAAHPQDSAFSYRDAKKKLRLALCSADSVAFPVLTHSTRNGLPDHTDPEDNEIVCFLKVQIAEAINLQDKNLMAQLQETMRCVCRFDNRTCRKLLASIAEDYRKRAPYIAYLTRCRQGLQTTQAHLERLLQRVLRDKEVANRYFTTVCVRLLLESKEKKIREFIQDFQKLTAADDKTAQVEDFLQFLYGAMAQDVIWQNASEEQLQDAQLAIERSVMNRIFKLAFYPNQDGDILRDQVLHEHIQRLSKVVTANHRALQIPEVYLREAPWPSAQSEIRTISAYKTPRDKVQCILRMCSTIMNLLSLANEDSVPGADDFVPVLVFVLIKANPPCLLSTVQYISSFYASCLSGEESYWWMQFTAAVEFIKTIDDRK
Turning to B1, the binding entry in experiment [2] is listed as “binds”.

(Values after publication PMC10758102.)
